{"source": "PubChem BioAssay AID1224828 (NIAID, 2016)", "test": "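Regulators linking TLR4 signalling to p65 nuclear translocation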 (primary screen)", "cells": "mouse RAW264.7 G9 macrophage reporter cells (GFP-p65, Tnf promoter-mCherry)", "knock-down reagent": "siRNA pool against mouse genes, 100 nM", "timing": "2 days siRNA transfection, then 40 min LPS before fixation", "treatment": "LPS (Salmonella minnesota R595) at 10 ng/ml", "measured": "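Microscopy ratio of nuclear to perinuclear-ring GFP-p65 signal, scaled to the plate median; gene score is the average of two replicate robust z-scores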", "direction": "p65 translocation robust z-score: higher = more nuclear NF-kappaB p65 after LPS than the plate median; nuclear/cytoplasmic p65 ratio: higher = more nuclear NF-kappaB p65", "hit rule": "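Called active when z exceeds 3.3 or falls under -1.56 (median of Tlr4 controls), giving activity score of at least 50; no calls for control wells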", "meaning of the calls": "active = hit (p65 shift raised or lowered); inactive = no clear change", "note": "Here is an unselected part of about 17,000 deposited reagents. 762 of all reagents (4.5%) were called active. 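Active calls include both raised and lowered p65 entry, mostly lowered; wells with fewer than 50 cells lack a z-score.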 The raw values are shown without normalisation. A number with no mark means an inactive call."}
{"target":"Spink12 (GeneID 78242)","p65 translocation robust z-score":1.19,"nuclear/cytoplasmic p65 ratio, rep 1":1.57,"nuclear/cytoplasmic p65 ratio, rep 2":1.73,"low cell count flag":"enough cells to score"}
{"target":"Chmp1b (GeneID 67064)","p65 translocation robust z-score":-0.12,"nuclear/cytoplasmic p65 ratio, rep 1":1.38,"nuclear/cytoplasmic p65 ratio, rep 2":1.36,"low cell count flag":"enough cells to score"}
{"target":"Or2a51 (GeneID 258647)","p65 translocation robust z-score":1.42,"nuclear/cytoplasmic p65 ratio, rep 1":1.58,"nuclear/cytoplasmic p65 ratio, rep 2":1.48,"low cell count flag":"enough cells to score"}
{"target":"Spata9 (GeneID 75571)","p65 translocation robust z-score":-0.74,"nuclear/cytoplasmic p65 ratio, rep 1":1.25,"nuclear/cytoplasmic p65 ratio, rep 2":1.37,"low cell count flag":"enough cells to score"}
{"target":"Mpnd (GeneID 68047)","nuclear/cytoplasmic p65 ratio, rep 1":1.6,"nuclear/cytoplasmic p65 ratio, rep 2":1.37,"low cell count flag":"fewer than 50 cells per well; well left out of scoring"}
{"target":"Dnajc24 (GeneID 99349)","p65 translocation robust z-score":-0.58,"nuclear/cytoplasmic p65 ratio, rep 1":1.32,"nuclear/cytoplasmic p65 ratio, rep 2":1.41,"low cell count flag":"enough cells to score"}
{"target":"Adam33 (GeneID 110751)","p65 translocation robust z-score":-0.51,"nuclear/cytoplasmic p65 ratio, rep 1":1.25,"nuclear/cytoplasmic p65 ratio, rep 2":1.63,"low cell count flag":"enough cells to score"}
{"target":"Psmb1 (GeneID 19170)","nuclear/cytoplasmic p65 ratio, rep 1":1.43,"nuclear/cytoplasmic p65 ratio, rep 2":0.914,"low cell count flag":"fewer than 50 cells per well; well left out of scoring"}
{"target":"H2bc3 (GeneID 319178)","nuclear/cytoplasmic p65 ratio, rep 1":1.35,"nuclear/cytoplasmic p65 ratio, rep 2":0.987,"low cell count flag":"fewer than 50 cells per well; well left out of scoring"}
{"target":"Gpr141b (GeneID 319293)","p65 translocation robust z-score":0.66,"nuclear/cytoplasmic p65 ratio, rep 1":1.28,"nuclear/cytoplasmic p65 ratio, rep 2":1.62,"low cell count flag":"enough cells to score"}
{"target":"Dmtn (GeneID 13829)","p65 translocation robust z-score":0.91,"nuclear/cytoplasmic p65 ratio, rep 1":1.71,"nuclear/cytoplasmic p65 ratio, rep 2":1.6,"low cell count flag":"enough cells to score"}
{"target":"G6pd2 (GeneID 14380)","p65 translocation robust z-score":"-2.28 (active)","nuclear/cytoplasmic p65 ratio, rep 1":1.28,"nuclear/cytoplasmic p65 ratio, rep 2":1.13,"low cell count flag":"enough cells to score"}
{"target":"Galr1 (GeneID 14427)","p65 translocation robust z-score":-0.46,"nuclear/cytoplasmic p65 ratio, rep 1":1.34,"nuclear/cytoplasmic p65 ratio, rep 2":1.35,"low cell count flag":"enough cells to score"}
{"target":"Ltb4r1 (GeneID 16995)","p65 translocation robust z-score":-0.02,"nuclear/cytoplasmic p65 ratio, rep 1":1.44,"nuclear/cytoplasmic p65 ratio, rep 2":1.65,"low cell count flag":"enough cells to score"}
{"target":"Dhrs9 (GeneID 241452)","p65 translocation robust z-score":-0.28,"nuclear/cytoplasmic p65 ratio, rep 1":1.57,"nuclear/cytoplasmic p65 ratio, rep 2":1.46,"low cell count flag":"enough cells to score"}
{"target":"Kif3b (GeneID 16569)","p65 translocation robust z-score":-0.86,"nuclear/cytoplasmic p65 ratio, rep 1":1.36,"nuclear/cytoplasmic p65 ratio, rep 2":1.27,"low cell count flag":"enough cells to score"}
{"target":"Frmd4b (GeneID 232288)","p65 translocation robust z-score":0.2,"nuclear/cytoplasmic p65 ratio, rep 1":1.42,"nuclear/cytoplasmic p65 ratio, rep 2":1.46,"low cell count flag":"enough cells to score"}
{"target":"Dcaf12l2 (GeneID 245403)","p65 translocation robust z-score":1.94,"nuclear/cytoplasmic p65 ratio, rep 1":1.69,"nuclear/cytoplasmic p65 ratio, rep 2":1.74,"low cell count flag":"enough cells to score"}
{"target":"Atp5f1b (GeneID 11947)","p65 translocation robust z-score":0.72,"nuclear/cytoplasmic p65 ratio, rep 1":1.68,"nuclear/cytoplasmic p65 ratio, rep 2":1.64,"low cell count flag":"enough cells to score"}
{"target":"Ivns1abp (GeneID 117198)","p65 translocation robust z-score":-1.09,"nuclear/cytoplasmic p65 ratio, rep 1":1.27,"nuclear/cytoplasmic p65 ratio, rep 2":1.29,"low cell count flag":"enough cells to score"}
{"target":"Mtfr1l (GeneID 76824)","p65 translocation robust z-score":-0.55,"nuclear/cytoplasmic p65 ratio, rep 1":1.31,"nuclear/cytoplasmic p65 ratio, rep 2":1.41,"low cell count flag":"enough cells to score"}
{"target":"Ccl2 (GeneID 20296)","p65 translocation robust z-score":0.92,"nuclear/cytoplasmic p65 ratio, rep 1":1.64,"nuclear/cytoplasmic p65 ratio, rep 2":1.45,"low cell count flag":"enough cells to score"}
{"target":"Sp4 (GeneID 20688)","p65 translocation robust z-score":-0.25,"nuclear/cytoplasmic p65 ratio, rep 1":1.53,"nuclear/cytoplasmic p65 ratio, rep 2":1.5,"low cell count flag":"enough cells to score"}
{"target":"Vmn1r67 (GeneID 171263)","p65 translocation robust z-score":0.05,"nuclear/cytoplasmic p65 ratio, rep 1":1.3,"nuclear/cytoplasmic p65 ratio, rep 2":1.23,"low cell count flag":"enough cells to score"}
{"target":"Cldn5 (GeneID 12741)","p65 translocation robust z-score":-0.79,"nuclear/cytoplasmic p65 ratio, rep 1":1.35,"nuclear/cytoplasmic p65 ratio, rep 2":1.29,"low cell count flag":"enough cells to score"}
{"target":"Mib2 (GeneID 76580)","nuclear/cytoplasmic p65 ratio, rep 1":1.39,"nuclear/cytoplasmic p65 ratio, rep 2":1.09,"low cell count flag":"fewer than 50 cells per well; well left out of scoring"}
{"target":"Arhgef11 (GeneID 213498)","p65 translocation robust z-score":-0.59,"nuclear/cytoplasmic p65 ratio, rep 1":1.53,"nuclear/cytoplasmic p65 ratio, rep 2":1.53,"low cell count flag":"enough cells to score"}

2 of these entries in another layout.
Dhrs9 (GeneID 241452): p65 translocation robust z-score = -0.28; nuclear/cytoplasmic p65 ratio, rep 1 = 1.57; nuclear/cytoplasmic p65 ratio, rep 2 = 1.46; low cell count flag = enough cells to score
Kif3b (GeneID 16569): p65 translocation robust z-score = -0.86; nuclear/cytoplasmic p65 ratio, rep 1 = 1.36; nuclear/cytoplasmic p65 ratio, rep 2 = 1.27; low cell count flag = enough cells to score
